According to PMC4117747, “The N-terminus of Mcm10 is important for interaction with the 9-1-1 clamp and in resistance to DNA damage” (Nucleic Acids Research, 2014):
Results are given in words; binding and its absence hold for the method and conditions named. Some binding calls cover weakened binding; strength is not graded here. Tags and fused reporters may be left off the sequences shown.

Legend:
Assay in all cases: two-hybrid; yeast two-hybrid with pBTM116 (LexA) and pACT2 fusions; β-galactosidase activity in cell extracts, in triplicate from at least three clones
[1] = target: T1, Mcm10Δ100 (LexA fusion) (S. cerevisiae) (UniProt P32354)
T1 sequence: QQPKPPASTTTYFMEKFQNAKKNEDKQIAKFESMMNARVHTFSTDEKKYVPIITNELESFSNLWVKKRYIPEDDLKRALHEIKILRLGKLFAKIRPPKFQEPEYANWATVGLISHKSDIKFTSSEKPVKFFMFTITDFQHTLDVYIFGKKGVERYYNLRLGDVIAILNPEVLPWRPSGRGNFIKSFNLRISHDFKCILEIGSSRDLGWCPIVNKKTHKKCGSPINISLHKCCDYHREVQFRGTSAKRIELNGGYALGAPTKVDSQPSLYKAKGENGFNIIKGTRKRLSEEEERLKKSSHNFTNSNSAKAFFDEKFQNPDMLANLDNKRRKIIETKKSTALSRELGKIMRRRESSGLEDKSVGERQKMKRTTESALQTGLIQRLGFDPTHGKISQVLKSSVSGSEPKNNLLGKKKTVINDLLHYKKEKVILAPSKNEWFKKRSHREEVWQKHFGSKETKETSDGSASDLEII

[2] = target: T2, Mcm10 ID (internal deletion of residues 100–150, two-hybrid fusion) (S. cerevisiae) (UniProt P32354)
T2 sequence: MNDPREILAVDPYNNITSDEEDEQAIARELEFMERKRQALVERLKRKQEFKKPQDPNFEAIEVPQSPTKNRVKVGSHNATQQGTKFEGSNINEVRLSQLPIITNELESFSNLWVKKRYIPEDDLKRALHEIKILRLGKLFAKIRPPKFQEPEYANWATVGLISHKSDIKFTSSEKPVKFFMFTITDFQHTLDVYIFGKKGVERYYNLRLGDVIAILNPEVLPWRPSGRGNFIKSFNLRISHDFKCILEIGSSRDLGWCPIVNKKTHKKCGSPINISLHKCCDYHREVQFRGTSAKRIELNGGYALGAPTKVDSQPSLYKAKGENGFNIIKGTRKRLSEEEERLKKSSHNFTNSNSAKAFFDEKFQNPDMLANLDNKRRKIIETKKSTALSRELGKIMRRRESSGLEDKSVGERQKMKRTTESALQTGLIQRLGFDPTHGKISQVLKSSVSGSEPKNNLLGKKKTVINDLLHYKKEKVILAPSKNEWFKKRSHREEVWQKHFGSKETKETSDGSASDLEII

[3] = target: T3, Mcm10Δ130 (LexA fusion) (S. cerevisiae) (UniProt P32354)
T3 sequence: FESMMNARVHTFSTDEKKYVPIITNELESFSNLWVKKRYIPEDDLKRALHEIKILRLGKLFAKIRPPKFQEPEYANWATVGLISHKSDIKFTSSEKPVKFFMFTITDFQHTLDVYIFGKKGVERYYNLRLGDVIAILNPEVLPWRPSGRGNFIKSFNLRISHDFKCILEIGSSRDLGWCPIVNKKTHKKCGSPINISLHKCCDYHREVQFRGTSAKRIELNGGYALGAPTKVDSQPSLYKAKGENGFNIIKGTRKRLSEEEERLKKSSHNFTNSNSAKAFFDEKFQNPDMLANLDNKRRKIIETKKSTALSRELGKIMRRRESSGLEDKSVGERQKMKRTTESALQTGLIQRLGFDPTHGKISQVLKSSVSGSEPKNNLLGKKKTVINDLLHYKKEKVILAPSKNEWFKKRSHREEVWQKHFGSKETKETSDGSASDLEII

[4] = target: T4, Mcm10Δ110 (LexA fusion) (S. cerevisiae) (UniProt P32354)
T4 sequence: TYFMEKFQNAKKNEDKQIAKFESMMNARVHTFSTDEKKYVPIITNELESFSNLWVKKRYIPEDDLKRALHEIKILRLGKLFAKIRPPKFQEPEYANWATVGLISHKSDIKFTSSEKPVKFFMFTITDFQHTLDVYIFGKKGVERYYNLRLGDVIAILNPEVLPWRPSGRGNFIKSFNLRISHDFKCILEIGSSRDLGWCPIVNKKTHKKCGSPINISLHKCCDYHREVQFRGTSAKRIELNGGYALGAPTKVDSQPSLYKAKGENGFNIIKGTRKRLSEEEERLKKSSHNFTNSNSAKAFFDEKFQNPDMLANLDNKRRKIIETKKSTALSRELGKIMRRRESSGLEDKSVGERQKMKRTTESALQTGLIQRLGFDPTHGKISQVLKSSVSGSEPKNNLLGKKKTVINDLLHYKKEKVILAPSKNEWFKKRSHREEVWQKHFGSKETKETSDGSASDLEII

[5] = target: T5, Mcm10Δ50 (LexA fusion) (S. cerevisiae) (UniProt P32354)
T5 sequence: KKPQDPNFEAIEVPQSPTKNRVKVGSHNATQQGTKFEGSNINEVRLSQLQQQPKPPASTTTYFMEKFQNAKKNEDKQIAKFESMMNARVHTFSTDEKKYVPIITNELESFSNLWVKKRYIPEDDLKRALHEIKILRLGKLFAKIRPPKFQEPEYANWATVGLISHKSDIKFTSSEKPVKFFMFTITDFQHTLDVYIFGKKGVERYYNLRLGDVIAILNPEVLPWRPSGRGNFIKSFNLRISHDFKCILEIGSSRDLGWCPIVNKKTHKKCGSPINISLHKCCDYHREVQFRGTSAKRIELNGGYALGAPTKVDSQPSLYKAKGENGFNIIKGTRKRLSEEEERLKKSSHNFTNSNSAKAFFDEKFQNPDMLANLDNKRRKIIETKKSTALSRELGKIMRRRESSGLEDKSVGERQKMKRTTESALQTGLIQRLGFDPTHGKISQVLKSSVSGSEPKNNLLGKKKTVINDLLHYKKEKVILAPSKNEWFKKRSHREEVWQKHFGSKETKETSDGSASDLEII

Measured: binding

B1: Mec3 (pACT2 fusion, wild type) (protein, UniProt Q02574 1-474)
chain: MKLKLIVNGCEAPDDYKLLRTTINTVASLRKTAILRFNSERLTIISTPKSSLNSSNNGTILRGDTGQLWCTIPHDVFRLYTVISARELNTITMECNCDSLLSVFKRYDRVMNQGSSSNMTIKLQSMPEWNTNNGTLSGGTAGGVDTTSKPNPICALGITFEEIVHTSGPNDAIVMNGGVDEHNGLPTTVGTGNLLASNKVIMHSFKVPVKLLFRAQDTRIQEPMINYIQLMMYKLPPISGEFGSAFHGFIRRVERYSNVNHIHLMGVKKKEHGNEGDDVELKIIVNELDWHLEICWNGPLDSVIQRQEGLTDNPSQNQHIDTDGRQEEGSLPIIEADKPMSSLYTNTRDREMEENIRYDEDLLRIEDSSIADTRGNIYTADTSGDTEFNDISVMVEKAEQESSSTHEVIIRCKDWKVCSKLYAAFEEVVLAISHDESCVFHCSLDRGSLEDSEDVEKPRERGQIIYYIARSKGL
binds: all assays above
